Laboratory results: PubChem BioAssay AID504764 (Drosophila RNAi Screening Center, 2011)
In all, the deposit lists about 22,000 reagents; below is a random part of those that have a named target and a result. Of all reagents, 403 (1.9%) are marked active. 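Unnormalised raw counts per well; ratio z-scores behind the hit calls and whether each hit raises or lowers signal are not deposited.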 Entries without a mark were called inactive. Not given: the amount of reagent.

Test: 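Genes whose knock-down alters Notch-dependent transcription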 (primary screen)
Cell system: Drosophila Kc167 cells
Reagent: long dsRNA against Drosophila genes
Duration: about 5 days (4 days dsRNA, then 24 h after transfection)
Conditions: transfection of constitutively active membrane-tethered Notch lacking the extracellular domain, read 24 h later
Measurement: 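Light from a Notch-responsive E(spl)m3 luciferase reporter under active Notch, with control-promoter and no-Notch reporter wells to normalise; raw counts from paired wells a and b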
Reading the numbers: induced reporter light, run 1, well a and induced reporter light, run 1, well b: higher = more light from the Notch target reporter with active Notch; control promoter light, run 1, well a and control promoter light, run 1, well b: higher = more light from the viral control promoter (cell number, transfection, viability); uninduced reporter light, run 1, well a: higher = more light from the Notch target reporter without active Notch
Active means: 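Wells with low control signal or poorly matching duplicates excluded; duplicates averaged; per source plate, z beyond ±2 for induced/control log2 ratio or beyond ±1.8 for induced/uninduced marks a hit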
Meaning of the calls: active = modifier hit (raised or lowered Notch signal); inactive = not a hit

For Obp56g [DRSC06432] the deposit lists induced reporter light, run 1, well a = 33410; induced reporter light, run 1, well b = 23030; control promoter light, run 1, well a = 29195; control promoter light, run 1, well b = 30115; uninduced reporter light, run 1, well a = 3235.
Depletion of CG13984 [DRSC02316] resulted in: induced reporter light, run 1, well a = 1.96e5; induced reporter light, run 1, well b = 1.82e5; control promoter light, run 1, well a = 2.35e5; control promoter light, run 1, well b = 2.10e5; uninduced reporter light, run 1, well a = 12855.
Against CG15729 (retired record) [DRSC19695], the entry reads induced reporter light, run 1, well a = 84860; induced reporter light, run 1, well b = 1.02e5; control promoter light, run 1, well a = 1.55e5; control promoter light, run 1, well b = 1.39e5; uninduced reporter light, run 1, well a = 6470.
After knock-down of Cph [DRSC17507], the record shows induced reporter light, run 1, well a = 66400; induced reporter light, run 1, well b = 72070; control promoter light, run 1, well a = 65875; control promoter light, run 1, well b = 68445; uninduced reporter light, run 1, well a = 5375.
Cph [DRSC18434] scored induced reporter light, run 1, well a = 79525; induced reporter light, run 1, well b = 82340; control promoter light, run 1, well a = 1.43e5; control promoter light, run 1, well b = 1.23e5; uninduced reporter light, run 1, well a = 7750.
Against CG7896 [DRSC16335] the deposit lists induced reporter light, run 1, well a = 1.89e5; induced reporter light, run 1, well b = 2.01e5; control promoter light, run 1, well a = 2.80e5; control promoter light, run 1, well b = 2.52e5; uninduced reporter light, run 1, well a = 16200.
For Mur2B [DRSC18545] the deposit lists induced reporter light, run 1, well a = 1.40e5; induced reporter light, run 1, well b = 1.39e5; control promoter light, run 1, well a = 2.92e5; control promoter light, run 1, well b = 3.17e5; uninduced reporter light, run 1, well a = 9892.
For Mur2B [DRSC18546], the entry reads induced reporter light, run 1, well a = 1.37e5; induced reporter light, run 1, well b = 1.22e5; control promoter light, run 1, well a = 2.31e5; control promoter light, run 1, well b = 2.40e5; uninduced reporter light, run 1, well a = 9190.

Laid out differently: entries from further up
Gene,amplicon,"induced reporter light, run 1, well a","induced reporter light, run 1, well b","control promoter light, run 1, well a","control promoter light, run 1, well b","uninduced reporter light, run 1, well a"
CG13984,DRSC02316,1.96e5,1.82e5,2.35e5,2.10e5,12855
CG15729 (retired record),DRSC19695,84860,1.02e5,1.55e5,1.39e5,6470

Additional reagents follow.
Rheb [DRSC12148] gave induced reporter light, run 1, well a = 43765; induced reporter light, run 1, well b = 51765; control promoter light, run 1, well a = 29020; control promoter light, run 1, well b = 29165; uninduced reporter light, run 1, well a = 4180.
For CG34427 [DRSC09978], the entry reads induced reporter light, run 1, well a = 2.22e5; induced reporter light, run 1, well b = 1.99e5; control promoter light, run 1, well a = 2.79e5; control promoter light, run 1, well b = 2.08e5; uninduced reporter light, run 1, well a = 15140.
Depletion of CG12769 [DRSC06167] gave: induced reporter light, run 1, well a = 1.78e5; induced reporter light, run 1, well b = 1.72e5; control promoter light, run 1, well a = 1.52e5; control promoter light, run 1, well b = 1.64e5; uninduced reporter light, run 1, well a = 13650.
Knock-down of CG3287 (retired record) [DRSC04991] gave: induced reporter light, run 1, well a = 2.28e5; induced reporter light, run 1, well b = 2.08e5; control promoter light, run 1, well a = 2.68e5; control promoter light, run 1, well b = 2.83e5; uninduced reporter light, run 1, well a = 20620.
